Among the data in paper PMC5817353, “Iron Sulfur and Molybdenum Cofactor Enzymes Regulate the Drosophila Life Cycle by Controlling Cell Metabolism” (Frontiers in Physiology, 2018) are binding values, retold here.

By UniProt entry, the sequences of proteins in these tests, tags left out. Where a name states a change or a piece, a line headed by the entry shows the natural chain unless it says otherwise. Residues count along the entry.
UniProt Q9VKD3, residues 54-462: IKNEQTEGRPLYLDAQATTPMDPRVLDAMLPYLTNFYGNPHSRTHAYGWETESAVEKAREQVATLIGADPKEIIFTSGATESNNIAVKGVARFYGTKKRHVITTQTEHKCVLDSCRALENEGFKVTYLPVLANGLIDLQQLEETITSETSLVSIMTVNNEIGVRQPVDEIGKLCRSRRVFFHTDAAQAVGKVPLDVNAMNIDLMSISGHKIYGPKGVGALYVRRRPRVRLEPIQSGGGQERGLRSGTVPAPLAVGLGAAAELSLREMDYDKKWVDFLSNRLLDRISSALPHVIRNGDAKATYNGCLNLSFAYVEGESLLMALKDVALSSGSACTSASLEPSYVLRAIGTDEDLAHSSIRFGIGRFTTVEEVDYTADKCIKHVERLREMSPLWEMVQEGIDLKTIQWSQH
UniProt Q16595, residues 42-210: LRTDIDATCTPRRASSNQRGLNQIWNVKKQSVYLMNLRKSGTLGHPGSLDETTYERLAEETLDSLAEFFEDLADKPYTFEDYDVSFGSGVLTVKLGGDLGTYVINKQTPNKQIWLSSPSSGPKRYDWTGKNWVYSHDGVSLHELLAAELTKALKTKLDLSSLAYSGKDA

The target in experiment [1] is T1, Drosophila His6-IscU (Drosophila melanogaster) (UniProt Q9VHK6).
T1 sequence: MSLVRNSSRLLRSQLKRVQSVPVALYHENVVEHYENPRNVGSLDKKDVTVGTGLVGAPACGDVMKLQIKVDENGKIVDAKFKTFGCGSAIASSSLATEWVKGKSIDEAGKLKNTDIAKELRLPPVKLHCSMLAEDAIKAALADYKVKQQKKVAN
The experiment can be described thus: affinity co-purification of co-expressed proteins + SEC; Nfs1^Δ1–53 co-expressed with Isd11 and/or IscU in E. coli; complexes purified by affinity chromatography; 30 μM Nfs1^Δ1–53 applied onto an analytical Superdex200 column, fractions compared by SDS-PAGE.

Experiment [2] concerns the target T2, Drosophila His6-Isd11 (CG3717) (Drosophila melanogaster) (UniProt O46098).
T2 sequence: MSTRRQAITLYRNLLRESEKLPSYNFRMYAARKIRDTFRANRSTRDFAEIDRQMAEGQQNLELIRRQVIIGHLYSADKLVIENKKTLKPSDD
The description is as above.

Experiment [3] deals with Drosophila Nfs1^Δ1–53/Isd11/IscU complex (Drosophila melanogaster, UniProt Q9VKD3 54-462; O46098 1-92; Q9VHK6 1-154). The experiment can be described thus: SEC; human frataxin added to the purified Nfs1^Δ1–53/Isd11/IscU complex; analytical Superdex200 column, fractions compared by SDS-PAGE; binding shown by a further increase in size; both purified. In general terms: SEC sorts molecules by how far they enter the pores of the column.

Results are given in words; binding and its absence hold for the method and conditions named. Some results given as binding are weak or reduced against the parent protein; the word gives no strength. For some of these results: Sequences can lack the tags named with a protein.

Consider “Drosophila Nfs1^Δ1–53 (L-cysteine desulfurase, CG12264, first 53 amino acids removed) (from UniProt Q9VKD3 54-462) (enzyme)”, for which the binding entry in experiment [1] and in experiment [2] was “binds” in each case.
With “human frataxin (FXN) (from UniProt Q16595 42-210)”, the binding result in experiment [3] is on record as “binds”.

B1: Drosophila Isd11 (CG3717), no tag named, as in the ternary complex (protein, UniProt O46098 1-92)
chain: MSTRRQAITLYRNLLRESEKLPSYNFRMYAARKIRDTFRANRSTRDFAEIDRQMAEGQQNLELIRRQVIIGHLYSADKLVIENKKTLKPSDD
As for B1, the binding result in experiment [1] is given as “binds”.
